PubChem BioAssay AID743121, NCATS | 2013

- Assay: 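Partners whose loss is lethal together with topoisomerase I blockade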 (primary screen)
- Cells: MDA-MB-231 cells, a human breast cancer line
- Reagent: single siRNA against human genes, 20 nM siRNA (0.8 pmol per well)
- Timing: 120 h (drug added 48 h after transfection, read 72 h later)
- Challenge: camptothecin 20 nM (about EC30) for 72 h; vehicle 0.1% DMSO in parallel plates
- Read-out: 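CellTiter-Glo ATP signal, scaled to control siRNA as percent viability; sensitisation given as log2 of untreated divided by camptothecin-treated viability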
- Reading the numbers: log2 vehicle/camptothecin viability: higher = stronger sensitisation to camptothecin
- Active means: 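Active genes have an RSA gene-level p-value below 0.001, computed from the ratios of their separate siRNAs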
This is one part, drawn at random, of about 26,000 reagents tested. Of all reagents, 167 (0.63%) were called active. 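Calls are per gene from RSA p-values that are not deposited; an individual active-marked siRNA can sensitise only weakly.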 Entries without a mark were called inactive. Reagents against one gene are numbered here. Not all columns of the deposit are shown. No sequences are given here.

no.	target	reagent	log2 vehicle/camptothecin viability
1	CPLX1 (complexin 1)	1	-0.244
2	CPLX1 (complexin 1)	2	-0.299
3	CPLX1 (complexin 1)	3	-0.673
4	CPLX1 (complexin 1)	4	0.143
5	MAP3K9 (mitogen-activated protein kinase kinase kinase 9)	1	-0.126
6	MAP3K9 (mitogen-activated protein kinase kinase kinase 9)	2	-0.0452
7	MAP3K9 (mitogen-activated protein kinase kinase kinase 9)	3	-0.423
8	MAP3K9 (mitogen-activated protein kinase kinase kinase 9)	4	-0.465
9	LMTK3 (lemur tail kinase 3)	1	-0.167
10	LMTK3 (lemur tail kinase 3)	2	0.273
11	LMTK3 (lemur tail kinase 3)	3	-0.26
12	LMTK3 (lemur tail kinase 3)	4	-0.36
13	CAP1 (cyclase associated actin cytoskeleton regulatory protein 1)	1	-0.476
14	CAP1 (cyclase associated actin cytoskeleton regulatory protein 1)	2	-0.234
15	CAP1 (cyclase associated actin cytoskeleton regulatory protein 1)	3	-0.296
16	CAP1 (cyclase associated actin cytoskeleton regulatory protein 1)	4	-0.101
17	HPN (hepsin)	1	-0.0107
18	HPN (hepsin)	2	-0.162
19	HPN (hepsin)	3	0.242
20	HPN (hepsin)	4	-0.00656
21	CEBPA (CCAAT enhancer binding protein alpha)	1	-0.783
22	CEBPA (CCAAT enhancer binding protein alpha)	2	0.345
23	CEBPA (CCAAT enhancer binding protein alpha)	3	-0.624
24	CEBPA (CCAAT enhancer binding protein alpha)	4	-0.146
25	BCAR3 (BCAR3 adaptor protein, NSP family member)	1	0.258
26	BCAR3 (BCAR3 adaptor protein, NSP family member)	2	-0.487
27	BCAR3 (BCAR3 adaptor protein, NSP family member)	3	-0.484
28	BCAR3 (BCAR3 adaptor protein, NSP family member)	4	-0.314

Targets above whose gene name begins with L or l:
target	reagent	log2 vehicle/camptothecin viability
LMTK3 (lemur tail kinase 3)	1	-0.167
LMTK3 (lemur tail kinase 3)	2	0.273
LMTK3 (lemur tail kinase 3)	3	-0.26
LMTK3 (lemur tail kinase 3)	4	-0.36
